These are yes or no findings as the source states them, for the method shown. For some of these results: In cells and extracts the contact can be indirect. Some binding calls cover weakened binding; strength is not graded here.
How the values were obtained:
[1] = target: full-length BTN3A1 ectodomain displayed on yeast cells (human) (UniProt O00481); test: FACS staining of yeast displaying the full-length BTN3A1 ectodomain with purified LTβR-IgG1 at different concentrations
[2] = target: full-length BTN3A1 ectodomain displayed on yeast cells (human) (UniProt O00481); test: FACS staining of yeast displaying the BTN3A1 ectodomain with purified LTβR-IgG1
LTβR-IgG1 fusion protein [3] = target: LTβR-IgG1 fusion protein (UniProt P36941); test: pull-down with LtβR-IgG1 as bait on Protein A agarose beads, SDS-PAGE
LTβR-IgG1 fusion protein [4] = target: LTβR-IgG1 fusion protein (UniProt P36941); test: pull-down on Protein A agarose beads, silver-stained polyacrylamide gel

Chains of the proteins cited; added tags and fusions are not shown. Lines headed by an entry give the natural chain unless they say otherwise; changes in a name come on top. Residues count along the entry.
UniProt O00481: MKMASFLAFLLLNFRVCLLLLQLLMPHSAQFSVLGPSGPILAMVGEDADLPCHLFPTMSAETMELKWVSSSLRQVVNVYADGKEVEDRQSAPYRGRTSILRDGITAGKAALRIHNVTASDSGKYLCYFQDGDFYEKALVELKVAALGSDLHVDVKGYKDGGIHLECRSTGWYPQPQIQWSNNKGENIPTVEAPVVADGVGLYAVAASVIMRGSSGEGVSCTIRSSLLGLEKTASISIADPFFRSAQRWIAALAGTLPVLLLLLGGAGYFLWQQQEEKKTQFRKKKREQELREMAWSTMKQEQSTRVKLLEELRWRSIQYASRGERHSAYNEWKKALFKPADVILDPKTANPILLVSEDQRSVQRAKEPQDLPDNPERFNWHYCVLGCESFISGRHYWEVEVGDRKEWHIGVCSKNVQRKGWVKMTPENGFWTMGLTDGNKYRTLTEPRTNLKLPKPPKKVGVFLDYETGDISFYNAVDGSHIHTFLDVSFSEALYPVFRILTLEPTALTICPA
UniProt P36941, residues 31-227: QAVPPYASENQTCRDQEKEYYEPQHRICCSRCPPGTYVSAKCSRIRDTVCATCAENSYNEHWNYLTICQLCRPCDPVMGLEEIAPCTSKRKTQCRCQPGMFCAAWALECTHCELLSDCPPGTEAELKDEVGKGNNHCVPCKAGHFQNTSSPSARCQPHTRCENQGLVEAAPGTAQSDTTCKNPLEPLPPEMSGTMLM

| Substance | binding [1] | binding [2] | binding (LTβR-IgG1 fusion protein [3]) | binding (LTβR-IgG1 fusion protein [4]) |
| --- | --- | --- | --- | --- |
| LTβR-IgG1 fusion protein (from UniProt P36941 31-227) (Fc fusion) | binds | binds |  |  |
| recombinant BTN3A1 monomer (from UniProt O00481 30-246) (receptor) |  |  | binds | binds |
